PubChem BioAssay AID1508588 – Peter MacCallum Cancer Centre | 2020
The deposit covers about 18,000 reagents; below is an unselected part. 790 of them (4.4%) were called active. 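Calls rest on a combination of fold-change classes in drug and vehicle arms, not all shown here.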 Unmarked entries are inactive.

Aim: 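Genome-wide search for knock-downs that heighten vemurafenib action in melanoma cells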 (primary screen)
Cells: human WM266.4 melanoma cells (BRAF V600 mutant)
Reagents: siRNA pool against human genes, 40 nM
Timing: 96 h from transfection to read-out
Treatment: vemurafenib 300 nM (about IC25), added 48 h after transfection, for 48 h; comparison arm got DMSO vehicle only
Measurement: 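Cell gain (DAPI nuclei at end minus before drug, mean of two replicates) and medium lactate by absorbance per cell, both as ratio to non-targeting siRNA, also grouped into fold-change classes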
Direction: cell gain with vemurafenib: higher = more cell gain than with non-targeting siRNA; lactate per cell with vemurafenib: higher = more lactate made per cell
Call rule: 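a knock-down counts as enhancing when its fold-change classes with vehicle and with vemurafenib, taken together, show a stronger drug effect on cell gain or lactate per cell; exact class pairs not stated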
Meaning of the calls: active = enhances vemurafenib effect; inactive = no enhancement seen

PEDS1 | cell gain with vemurafenib = 0.09; lactate per cell with vemurafenib = 0.87
HBD | cell gain with vemurafenib = 0.74; lactate per cell with vemurafenib = 0.85
LYZL1 | cell gain with vemurafenib = 0.48 (active); lactate per cell with vemurafenib = 0.47
FBXO28 | cell gain with vemurafenib = 0.93; lactate per cell with vemurafenib = 0.68
ASB18 | cell gain with vemurafenib = 0.33; lactate per cell with vemurafenib = 1.84
LRRC56 | cell gain with vemurafenib = 0.74; lactate per cell with vemurafenib = 0.78
CSDC2 | cell gain with vemurafenib = 0.16; lactate per cell with vemurafenib = 0.55
SKOR1 | cell gain with vemurafenib = 0.95; lactate per cell with vemurafenib = 0.86
OSR1 | cell gain with vemurafenib = 1.21; lactate per cell with vemurafenib = 0.78
PDE8B | cell gain with vemurafenib = 0.57; lactate per cell with vemurafenib = 1.79
KRT8 | cell gain with vemurafenib = 0.5; lactate per cell with vemurafenib = 1.23
PCSK2 | cell gain with vemurafenib = -0.15; lactate per cell with vemurafenib = 3.98
STPG3 | cell gain with vemurafenib = 0.81; lactate per cell with vemurafenib = 0.67
MPI | cell gain with vemurafenib = 0.61; lactate per cell with vemurafenib = 0.87
LTA | cell gain with vemurafenib = 0.68; lactate per cell with vemurafenib = 0.6
ZNF30 | cell gain with vemurafenib = 0.74; lactate per cell with vemurafenib = 0.26
REG1A | cell gain with vemurafenib = 0.69; lactate per cell with vemurafenib = 1.17
ABHD16B | cell gain with vemurafenib = 0.16 (active); lactate per cell with vemurafenib = 0.12

Only “lactate per cell with vemurafenib” (4 entries from above):
CSDC2: 0.55
SKOR1: 0.86
OSR1: 0.78
PDE8B: 1.79

Continued.
GCFC2 | cell gain with vemurafenib = 0.89; lactate per cell with vemurafenib = 0.77
AKAP4 | cell gain with vemurafenib = 0.96; lactate per cell with vemurafenib = 1
WDFY1 | cell gain with vemurafenib = 1.08; lactate per cell with vemurafenib = 0.66
MPPED1 | cell gain with vemurafenib = 0.46; lactate per cell with vemurafenib = 1.75
PLEKHA5 | cell gain with vemurafenib = 0.08; lactate per cell with vemurafenib = 1.33
SMARCAD1 | cell gain with vemurafenib = 0.58; lactate per cell with vemurafenib = 0.77
NLRX1 | cell gain with vemurafenib = 0.55; lactate per cell with vemurafenib = 1.23
NRM | cell gain with vemurafenib = 1.02; lactate per cell with vemurafenib = 0.72
DOK3 | cell gain with vemurafenib = 0.8; lactate per cell with vemurafenib = 1.06
HMOX2 | cell gain with vemurafenib = 0.44; lactate per cell with vemurafenib = 1.06
ZSCAN18 | cell gain with vemurafenib = 0.62; lactate per cell with vemurafenib = 1.11
CSGALNACT1 | cell gain with vemurafenib = 0.31; lactate per cell with vemurafenib = 1.6
LSM12 | cell gain with vemurafenib = 0.33; lactate per cell with vemurafenib = 0.61
SNRNP25 | cell gain with vemurafenib = 0.18; lactate per cell with vemurafenib = 1.42
HSPB6 | cell gain with vemurafenib = 0.51 (active); lactate per cell with vemurafenib = 0.12
NOTUM | cell gain with vemurafenib = 0.87; lactate per cell with vemurafenib = 0.66
TMEM229B | cell gain with vemurafenib = 0.6; lactate per cell with vemurafenib = 1.21
GRINA | cell gain with vemurafenib = 0.51; lactate per cell with vemurafenib = 0.84
CYREN | cell gain with vemurafenib = 0.61; lactate per cell with vemurafenib = 1
TTN | cell gain with vemurafenib = 0.4; lactate per cell with vemurafenib = 1.32
C15orf40 | cell gain with vemurafenib = 0.63; lactate per cell with vemurafenib = 0.94
PSEN1 | cell gain with vemurafenib = 0.46; lactate per cell with vemurafenib = 0.72
